The supplement of paper PMC6078165
± gives the standard deviation of the averaged measurements. The reference is the same well before dosing, and untreated signal decays as well.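 Labels refer to human fibroblasts, largely primary: uterine (C12385, HUF), lung (H6013), bone (Hs27A), adrenal (HADF), skin (WS1), plus mammary HMF and breast cancer-associated Hs343T. Cancer lines are basal-like or mesenchymal-like triple-negative breast cancer. The paper counts as hits responses shifting over 3x the replicate standard deviation. The tissue of the other fibroblasts is not given here.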

Tested on: Hs578T
Experiment: relative JC-1 red fluorescence (viability) vs pre-drug, coculture with fibroblast (fraction); higher = more viable cancer cells
Protocol: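 JC-1 labelled TNBC cells cocultured 1:1 (1,500 cells each) with CellTrace Violet stained primary or stromal fibroblasts in 384-well plates in FluoroBrite medium, treated with one of 42 anticancer drugs at 0.1, 1, 10 or 100 uM. JC-1 red fluorescence (mitochondrial integrity in cancer cells only) was read by plate reader every 8 h for 72 h. Values are normalised to each well's pre-drug value. The stock of one drug was tenfold lower, so its dose labels may be too high.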

O=C(O)C1(C(=O)O)CCC1.[NH2-].[NH2-].[Pt+2] [Carboplatin]
relative JC-1 red fluorescence
Conditions | 8 h | 16 h | 24 h | 32 h | 40 h | 48 h | 56 h | 64 h | 72 h
10 µM | 0.919 ± 0.0056 | 0.8173 ± 0.0039 | 0.7471 ± 0.0033 | 0.7109 ± 0.007 | 0.644 ± 0.018 | 0.601 ± 0.018 | 0.575 ± 0.019 | 0.534 ± 0.017 | 0.52 ± 0.0077
100 µM | 0.8479 ± 0.0057 | 0.759 ± 0.032 | 0.72 ± 0.034 | 0.699 ± 0.041 | 0.649 ± 0.042 | 0.618 ± 0.038 | 0.621 ± 0.039 | 0.596 ± 0.035 | 0.597 ± 0.035

relative JC-1 red fluorescence
Conditions | 8 h | 16 h | 24 h | 32 h | 40 h | 48 h | 56 h | 64 h | 72 h
10 µM, coculture fibroblast: C12385 | 0.831 ± 0.0094 | 0.723 ± 0.019 | 0.672 ± 0.037 | 0.589 ± 0.043 | 0.526 ± 0.049 | 0.498 ± 0.045 | 0.468 ± 0.054 | 0.45 ± 0.057 | 0.44 ± 0.062
10 µM, coculture fibroblast: H6013 | 0.891 ± 0.016 | 0.834 ± 0.054 | 0.792 ± 0.05 | 0.777 ± 0.048 | 0.756 ± 0.051 | 0.743 ± 0.048 | 0.724 ± 0.05 | 0.728 ± 0.06 | 0.696 ± 0.061
10 µM, coculture fibroblast: H6019 | 0.78959 ± 0.00069 | 0.694 ± 0.013 | 0.677 ± 0.0087 | 0.585 ± 0.027 | 0.546 ± 0.039 | 0.515 ± 0.039 | 0.482 ± 0.035 | 0.457 ± 0.042 | 0.433 ± 0.04
10 µM, coculture fibroblast: H6076 | 0.885 ± 0.027 | 0.833 ± 0.021 | 0.824 ± 0.035 | 0.83 ± 0.037 | 0.817 ± 0.039 | 0.836 ± 0.039 | 0.832 ± 0.046 | 0.857 ± 0.049 | 0.859 ± 0.048
10 µM, coculture fibroblast: H6231 | 0.918 ± 0.0094 | 0.815 ± 0.012 | 0.737 ± 0.012 | 0.6807 ± 0.0021 | 0.6083 ± 0.0046 | 0.578 ± 0.012 | 0.521 ± 0.016 | 0.488 ± 0.023 | 0.463 ± 0.033
10 µM, coculture fibroblast: HADF | 0.903 ± 0.016 | 0.802 ± 0.016 | 0.73 ± 0.016 | 0.67 ± 0.0095 | 0.621 ± 0.007 | 0.5883 ± 0.00061 | 0.5534 ± 0.005 | 0.538 ± 0.0058 | 0.502 ± 0.01
10 µM, coculture fibroblast: HCFa | 0.885 ± 0.039 | 0.786 ± 0.042 | 0.734 ± 0.07 | 0.69 ± 0.077 | 0.623 ± 0.091 | 0.605 ± 0.1 | 0.563 ± 0.11 | 0.551 ± 0.1 | 0.509 ± 0.12
10 µM, coculture fibroblast: HCPF | 0.9372 ± 0.0068 | 0.8469 ± 0.0025 | 0.791 ± 0.022 | 0.753 ± 0.034 | 0.692 ± 0.024 | 0.672 ± 0.027 | 0.645 ± 0.025 | 0.604 ± 0.029 | 0.578 ± 0.032
10 µM, coculture fibroblast: HHSteC | 0.88 ± 0.018 | 0.773 ± 0.04 | 0.71 ± 0.054 | 0.655 ± 0.062 | 0.592 ± 0.072 | 0.565 ± 0.067 | 0.533 ± 0.062 | 0.511 ± 0.06 | 0.474 ± 0.054
10 µM, coculture fibroblast: HMF | 0.908 ± 0.067 | 0.818 ± 0.065 | 0.744 ± 0.015 | 0.7144 ± 0.0039 | 0.654 ± 0.015 | 0.624 ± 0.043 | 0.576 ± 0.054 | 0.555 ± 0.066 | 0.531 ± 0.076
10 µM, coculture fibroblast: HPFa | 0.897 ± 0.012 | 0.8048 ± 0.0024 | 0.72949 ± 6.7e-05 | 0.6603 ± 0.0042 | 0.6093 ± 0.0024 | 0.571 ± 0.0074 | 0.528 ± 0.0093 | 0.495 ± 0.011 | 0.451 ± 0.0062
10 µM, coculture fibroblast: HUF | 0.885 ± 0.027 | 0.791 ± 0.036 | 0.751 ± 0.041 | 0.644 ± 0.035 | 0.581 ± 0.042 | 0.544 ± 0.043 | 0.501 ± 0.047 | 0.477 ± 0.044 | 0.465 ± 0.043
10 µM, coculture fibroblast: Hs27A | 0.8617 ± 0.0018 | 0.7985 ± 0.0047 | 0.731 ± 0.03 | 0.677 ± 0.028 | 0.615 ± 0.029 | 0.594 ± 0.04 | 0.557 ± 0.045 | 0.547 ± 0.053 | 0.495 ± 0.055
10 µM, coculture fibroblast: Hs343T | 0.94 ± 0.035 | 0.843 ± 0.06 | 0.766 ± 0.038 | 0.724 ± 0.019 | 0.662 ± 0.016 | 0.6214 ± 0.0056 | 0.5686 ± 0.0013 | 0.536 ± 0.011 | 0.518 ± 0.016
10 µM, coculture fibroblast: WS1 | 0.831 ± 0.03 | 0.732 ± 0.017 | 0.684 ± 0.029 | 0.583 ± 0.03 | 0.523 ± 0.028 | 0.497 ± 0.031 | 0.46 ± 0.021 | 0.44 ± 0.018 | 0.422 ± 0.015
100 µM, coculture fibroblast: C12385 | 0.787 ± 0.021 | 0.705 ± 0.013 | 0.6682 ± 0.0047 | 0.5738 ± 0.0029 | 0.521 ± 0.0077 | 0.499 ± 0.011 | 0.475 ± 0.012 | 0.474 ± 0.011 | 0.471 ± 0.013
100 µM, coculture fibroblast: H6013 | 0.847 ± 0.0028 | 0.814 ± 0.041 | 0.791 ± 0.076 | 0.765 ± 0.096 | 0.75 ± 0.11 | 0.75 ± 0.12 | 0.734 ± 0.14 | 0.735 ± 0.16 | 0.719 ± 0.17
100 µM, coculture fibroblast: H6019 | 0.7571 ± 0.006 | 0.687 ± 0.016 | 0.697 ± 0.021 | 0.615 ± 0.018 | 0.599 ± 0.02 | 0.596 ± 0.029 | 0.584 ± 0.034 | 0.589 ± 0.026 | 0.583 ± 0.027
100 µM, coculture fibroblast: H6076 | 0.866 ± 0.032 | 0.803 ± 0.028 | 0.779 ± 0.024 | 0.777 ± 0.028 | 0.75 ± 0.035 | 0.752 ± 0.048 | 0.748 ± 0.041 | 0.743 ± 0.032 | 0.748 ± 0.035
100 µM, coculture fibroblast: H6231 | 0.862 ± 0.019 | 0.778 ± 0.025 | 0.6997 ± 0.0031 | 0.6539 ± 0.0048 | 0.585 ± 0.008 | 0.561 ± 0.018 | 0.523 ± 0.021 | 0.504 ± 0.023 | 0.504 ± 0.027
100 µM, coculture fibroblast: HADF | 0.877 ± 0.037 | 0.829 ± 0.041 | 0.787 ± 0.047 | 0.734 ± 0.046 | 0.699 ± 0.042 | 0.68 ± 0.043 | 0.647 ± 0.043 | 0.636 ± 0.043 | 0.615 ± 0.034
100 µM, coculture fibroblast: HCFa | 0.833 ± 0.022 | 0.782 ± 0.038 | 0.742 ± 0.035 | 0.69 ± 0.046 | 0.647 ± 0.038 | 0.643 ± 0.041 | 0.619 ± 0.035 | 0.622 ± 0.039 | 0.602 ± 0.026
100 µM, coculture fibroblast: HCPF | 0.894 ± 0.055 | 0.824 ± 0.086 | 0.796 ± 0.072 | 0.755 ± 0.048 | 0.691 ± 0.05 | 0.67 ± 0.036 | 0.65 ± 0.032 | 0.608 ± 0.024 | 0.589 ± 0.014
100 µM, coculture fibroblast: HHSteC | 0.84 ± 0.0088 | 0.798 ± 0.0038 | 0.7549 ± 0.0037 | 0.7033 ± 0.0052 | 0.666 ± 0.0087 | 0.64 ± 0.013 | 0.623 ± 0.033 | 0.611 ± 0.041 | 0.592 ± 0.045
100 µM, coculture fibroblast: HMF | 0.866 ± 0.023 | 0.7817 ± 0.0046 | 0.715 ± 0.011 | 0.671 ± 0.037 | 0.607 ± 0.035 | 0.572 ± 0.047 | 0.545 ± 0.057 | 0.515 ± 0.058 | 0.49 ± 0.055
100 µM, coculture fibroblast: HPFa | 0.8629 ± 0.0053 | 0.815 ± 0.027 | 0.762 ± 0.024 | 0.705 ± 0.026 | 0.664 ± 0.026 | 0.645 ± 0.023 | 0.607 ± 0.02 | 0.601 ± 0.016 | 0.578 ± 0.011
100 µM, coculture fibroblast: HUF | 0.804 ± 0.022 | 0.699 ± 0.04 | 0.675 ± 0.061 | 0.565 ± 0.057 | 0.506 ± 0.053 | 0.47 ± 0.059 | 0.452 ± 0.056 | 0.441 ± 0.061 | 0.442 ± 0.061
100 µM, coculture fibroblast: Hs27A | 0.8403 ± 0.0082 | 0.796 ± 0.014 | 0.752 ± 0.0026 | 0.7057 ± 0.0048 | 0.668 ± 0.024 | 0.664 ± 0.028 | 0.636 ± 0.041 | 0.636 ± 0.042 | 0.602 ± 0.034
100 µM, coculture fibroblast: Hs343T | 0.8577 ± 0.0054 | 0.757 ± 0.014 | 0.7015 ± 0.0068 | 0.678 ± 0.013 | 0.61 ± 0.02 | 0.581 ± 0.033 | 0.551 ± 0.046 | 0.525 ± 0.051 | 0.514 ± 0.061
100 µM, coculture fibroblast: WS1 | 0.75545 ± 0.00069 | 0.669 ± 0.01 | 0.62953 ± 0.00028 | 0.52 ± 0.0094 | 0.461 ± 0.0083 | 0.448 ± 0.013 | 0.423 ± 0.012 | 0.417 ± 0.015 | 0.418 ± 0.018
